Experimental findings from article PMC7762262 are described below.

Amino acid sequences for entries named in this document (tags omitted).
UniProt Q9UKI8: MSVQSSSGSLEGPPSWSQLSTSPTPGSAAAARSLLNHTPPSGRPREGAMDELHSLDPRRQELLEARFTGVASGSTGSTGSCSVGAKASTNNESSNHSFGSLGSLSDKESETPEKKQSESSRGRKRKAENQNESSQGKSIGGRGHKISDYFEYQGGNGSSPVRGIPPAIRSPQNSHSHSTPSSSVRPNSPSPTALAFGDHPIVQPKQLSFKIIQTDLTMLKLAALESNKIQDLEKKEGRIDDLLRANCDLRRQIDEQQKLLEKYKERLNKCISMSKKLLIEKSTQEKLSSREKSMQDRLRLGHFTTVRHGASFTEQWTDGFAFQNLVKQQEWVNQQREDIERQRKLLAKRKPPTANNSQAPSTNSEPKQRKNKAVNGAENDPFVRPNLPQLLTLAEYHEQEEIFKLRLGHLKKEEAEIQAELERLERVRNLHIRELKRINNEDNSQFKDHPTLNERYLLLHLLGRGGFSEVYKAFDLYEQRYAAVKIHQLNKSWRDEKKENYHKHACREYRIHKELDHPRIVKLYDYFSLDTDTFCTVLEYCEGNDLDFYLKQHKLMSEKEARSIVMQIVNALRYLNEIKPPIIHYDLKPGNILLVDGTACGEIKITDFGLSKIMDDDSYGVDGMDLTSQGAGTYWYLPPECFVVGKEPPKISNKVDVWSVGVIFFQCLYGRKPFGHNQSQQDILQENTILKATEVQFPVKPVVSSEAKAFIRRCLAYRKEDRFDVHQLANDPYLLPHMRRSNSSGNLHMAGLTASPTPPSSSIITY
UniProt P46937: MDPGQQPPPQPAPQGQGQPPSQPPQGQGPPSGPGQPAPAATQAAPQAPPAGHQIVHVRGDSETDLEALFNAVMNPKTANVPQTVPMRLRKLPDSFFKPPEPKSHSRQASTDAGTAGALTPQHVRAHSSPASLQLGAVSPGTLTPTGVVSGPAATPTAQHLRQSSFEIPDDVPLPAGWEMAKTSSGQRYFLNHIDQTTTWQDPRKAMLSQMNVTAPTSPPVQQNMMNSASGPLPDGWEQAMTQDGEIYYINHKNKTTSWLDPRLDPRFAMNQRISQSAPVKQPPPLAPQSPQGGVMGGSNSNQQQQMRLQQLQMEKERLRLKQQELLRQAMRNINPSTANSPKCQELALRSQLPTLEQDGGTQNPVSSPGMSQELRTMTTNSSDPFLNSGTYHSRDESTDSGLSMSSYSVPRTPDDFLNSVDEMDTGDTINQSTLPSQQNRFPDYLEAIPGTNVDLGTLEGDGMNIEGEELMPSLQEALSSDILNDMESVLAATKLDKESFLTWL

This assay addresses T1, never in mitosis gene A (NIMA)-related kinase 1 (NEK1) (UniProt Q96PY6).
T1 sequence: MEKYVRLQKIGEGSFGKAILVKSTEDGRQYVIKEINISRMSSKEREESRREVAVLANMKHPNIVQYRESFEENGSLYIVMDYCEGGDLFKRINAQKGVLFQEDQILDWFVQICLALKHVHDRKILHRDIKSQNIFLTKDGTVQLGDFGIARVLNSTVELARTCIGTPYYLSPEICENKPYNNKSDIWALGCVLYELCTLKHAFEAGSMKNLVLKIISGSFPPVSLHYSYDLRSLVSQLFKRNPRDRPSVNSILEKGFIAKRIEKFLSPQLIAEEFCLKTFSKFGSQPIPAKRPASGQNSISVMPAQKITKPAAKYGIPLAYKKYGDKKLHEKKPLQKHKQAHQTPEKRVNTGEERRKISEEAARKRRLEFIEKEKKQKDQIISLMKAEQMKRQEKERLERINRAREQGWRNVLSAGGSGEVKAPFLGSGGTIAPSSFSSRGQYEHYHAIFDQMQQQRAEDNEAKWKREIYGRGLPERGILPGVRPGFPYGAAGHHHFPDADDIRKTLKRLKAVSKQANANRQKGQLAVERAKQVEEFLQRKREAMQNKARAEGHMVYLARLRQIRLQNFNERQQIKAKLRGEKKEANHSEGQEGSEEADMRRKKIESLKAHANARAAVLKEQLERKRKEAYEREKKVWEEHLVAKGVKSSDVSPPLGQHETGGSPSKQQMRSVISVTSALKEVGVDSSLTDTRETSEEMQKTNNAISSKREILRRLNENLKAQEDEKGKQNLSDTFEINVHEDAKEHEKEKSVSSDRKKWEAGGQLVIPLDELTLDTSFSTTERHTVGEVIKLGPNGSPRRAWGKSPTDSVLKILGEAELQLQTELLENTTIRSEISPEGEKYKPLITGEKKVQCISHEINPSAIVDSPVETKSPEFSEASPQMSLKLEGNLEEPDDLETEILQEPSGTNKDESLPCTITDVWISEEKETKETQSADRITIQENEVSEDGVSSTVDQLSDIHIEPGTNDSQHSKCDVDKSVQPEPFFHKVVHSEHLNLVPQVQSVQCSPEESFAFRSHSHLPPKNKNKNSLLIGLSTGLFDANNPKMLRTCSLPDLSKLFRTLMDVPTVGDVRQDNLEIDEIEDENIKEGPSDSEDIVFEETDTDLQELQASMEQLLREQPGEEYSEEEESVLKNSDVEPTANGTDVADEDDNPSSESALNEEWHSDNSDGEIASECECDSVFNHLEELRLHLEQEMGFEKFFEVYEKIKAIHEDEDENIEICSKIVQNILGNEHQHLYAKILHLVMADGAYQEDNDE
The experiment in a line: co-IP; mouse anti-NEK1 antibody (or mouse IgG) on protein A/G agarose; 500 µg of lysate in 1X RIPA buffer, overnight at 4 °C; beads washed thrice; Western blot; cells with or without 10 µM THD (TLK inhibitor). (A western blot detects proteins with antibodies after separation by electrophoresis.)

These are yes or no findings as the source states them, for the method shown. Binding seen in cells or lysates may run through a third protein. Some results given as binding are weak or reduced against the parent protein; the word gives no strength.

Regarding “tousled-like kinase 1 (TLK1) (from UniProt Q9UKI8 1-766)”, the binding entry was “binds”.

With “yes-associated protein 1 (YAP1) (from UniProt P46937 1-504)”, the binding result is on record as “binds”.
